Results taken from patent US20250034266A1.
No constants are given. Whether binding was seen depends on the method and setting. Some results given as binding are weak or reduced against the parent protein; the word gives no strength.

Chains of the proteins cited; added tags and fusions are not shown. Lines headed by an entry give the natural chain unless they say otherwise; changes in a name come on top. A line that says so, or that is headed by a name, gives the form on record, which may keep a tag or linker.
cynomolgus CCR8 (G7NYJ2, form named): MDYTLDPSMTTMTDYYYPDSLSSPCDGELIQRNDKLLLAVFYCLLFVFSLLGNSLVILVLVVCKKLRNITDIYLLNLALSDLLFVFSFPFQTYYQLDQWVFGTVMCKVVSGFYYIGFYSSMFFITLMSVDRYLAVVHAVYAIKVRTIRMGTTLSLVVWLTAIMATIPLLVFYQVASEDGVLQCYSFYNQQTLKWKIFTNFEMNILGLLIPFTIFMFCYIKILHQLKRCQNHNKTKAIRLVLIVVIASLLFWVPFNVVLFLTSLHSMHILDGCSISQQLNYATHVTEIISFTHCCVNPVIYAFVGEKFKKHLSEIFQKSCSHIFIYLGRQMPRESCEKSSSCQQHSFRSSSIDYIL
UniProt P51685: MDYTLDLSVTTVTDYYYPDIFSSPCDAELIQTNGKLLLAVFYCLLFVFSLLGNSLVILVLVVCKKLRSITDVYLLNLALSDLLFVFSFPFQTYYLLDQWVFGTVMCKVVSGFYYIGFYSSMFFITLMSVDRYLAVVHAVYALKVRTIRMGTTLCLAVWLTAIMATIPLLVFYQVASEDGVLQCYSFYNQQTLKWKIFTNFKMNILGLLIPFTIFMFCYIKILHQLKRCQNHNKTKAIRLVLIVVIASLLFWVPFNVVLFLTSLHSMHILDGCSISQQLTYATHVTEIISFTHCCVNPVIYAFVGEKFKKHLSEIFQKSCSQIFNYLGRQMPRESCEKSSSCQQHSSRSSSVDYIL

What was measured:
[1] = molecular target: cynomolgus CCR8 (cynomolgus) (UniProt G7NYJ2); experiment: FACS, purified murine antibody on HEK293-cynomolgus CCR8 cells
human CCR8 (human) [2] = molecular target: human CCR8 (human) (UniProt P51685); experiment: FACS, hybridoma supernatant on human CCR8 cells
human CCR8 (human) [3] = molecular target: human CCR8 (human) (UniProt P51685); experiment: FACS, purified murine antibody on CHO-K1- and HEK293-human CCR8 cells
[4] = molecular target: cynomolgus CCR8 (cynomolgus) (UniProt G7NYJ2); experiment: FACS, hybridoma supernatant on cynomolgus CCR8 cells
human CCR8 (human) [5] = molecular target: human CCR8 (human) (UniProt P51685); experiment: FACS on HEK293-human CCR8 cells

Measured: binding

B1: 153D4G2 (antibody, V domains shown)
VH: EVQLVESGGGLVQPKGSLKLSCAASGFTFNTYAMNWVRQAPGKGLEWVARIRSKSNFYATYYADSVKDRFTISRDDSQDMLYLQMNILKTEDTAIYYCVRGRDYGSSYAMDYWGQGTSVTVSS
VL: DIVMTQAAPSVPVTPGESVSISCRSSKSLLHSNGNTYLYWFLQRPGQSPQLLIYRMSNLASGVPDRFSGSGSGTAFTLRISRVEAEDVGVYYCMQHLEYPLTFGAGTKLELK
not listed: human CCR8 (human) [5]
binds: all other assays above

B2: 234G9C12 (antibody, V domains shown)
VH: DVQLQESGPGLVKPSQSLSLTCSVTGYSITSGYYWNWIRQFPGNKLEWMGYTSYDGSNNYNPSFKNRISITRDISKNQFFLKLNSVTTEDTATYYCARQIGLRRGAMDHWGQGTSVTVSS
VL: DIQMTQSSSYLSVSLGGRVTITCKASDHINNWLAWYQQKPGNAPRLLISGSTSLRAGVASRFSGSGSGKDYTLTITSLQTEDVATYYCQQYWGIPFTFGGGTKLEIK
not listed: human CCR8 (human) [5]
binds: all other assays above

B3: CM348 (antibody, V domains shown)
VH: QVQLVETGGGLVRPGNSLKLSCVTSGFSFSNYRMHWLRQPPGKRLEWIAVITVKSDNYGANYAESVKGRFTISRDDSKSSVYLQMNRLREEDTATYYCSSLGRVAYWGQGTLVTVSA
VL: DIVMTQSQKFMFTSVGDRVSVTCKASQNVDTNVVWYQQKPGQSPKALIYSASSRYSGVPDRFTGSGSGTDFTLTISNVQSEDLAEYFCQQHNSFPLTFGAGTKLELI
binds: human CCR8 (human) [5]
